Some of the results follow.
Tests used:
Assay in all cases: glycan array binding signal (z-score within array); higher = stronger binding
Conditions in all cases: glycan notation: IUPAC condensed, linker removed; mutation: D224N
[1] = biological target: Gal(b1-4)GlcNAc(b1-3)Gal(b1-4)GlcNAc(b1-3)Gal(b1-4)GlcNAc(b1-3)Gal(b1-4)GlcNAc(b1-2)Man(a1-3)[Gal(b1-4)GlcNAc(b1-3)Gal(b1-4)GlcNAc(b1-3)Gal(b1-4)GlcNAc(b1-3)Gal(b1-4)GlcNAc(b1-2)Man(a1-6)]Man(b1-4)GlcNAc(b1-4)GlcNAc
Outline: (§1)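 Glycan array binding is given as a within-array Z-score, which can be read as non-binding when negative. The arrays, 3228 of them, came from the Consortium for Functional Glycomics database and were retained only where the protein sequence was available. Z-scores were averaged across arrays of the same protein sequence at different concentrations or buffers and across linkers.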

[2] = biological target: Gal(b1-4)GlcNAc(b1-3)Gal(b1-4)GlcNAc(b1-3)Gal(b1-4)GlcNAc(b1-3)Gal(b1-4)GlcNAc(b1-2)Man(a1-3)[Gal(b1-4)GlcNAc(b1-3)Gal(b1-4)GlcNAc(b1-3)Gal(b1-4)GlcNAc(b1-3)Gal(b1-4)GlcNAc(b1-2)Man(a1-6)]Man(b1-4)GlcNAc(b1-4)[Fuc(a1-6)]GlcNAc
Outline: as §1

[3] = biological target: Gal(b1-4)GlcNAc(b1-3)Gal(b1-4)GlcNAc(b1-3)Gal(b1-4)GlcNAc(b1-3)Gal(b1-4)GlcNAc(b1-2)[Gal(b1-4)GlcNAc(b1-3)Gal(b1-4)GlcNAc(b1-3)Gal(b1-4)GlcNAc(b1-3)Gal(b1-4)GlcNAc(b1-6)]Man(a1-6)[Gal(b1-4)GlcNAc(b1-3)Gal(b1-4)GlcNAc(b1-3)Gal(b1-4)GlcNAc(b1-3)Gal(b1-4)GlcNAc(b1-2)Man(a1-3)]Man(b1-4)GlcNAc(b1-4)[Fuc(a1-6)]GlcNAc
Outline: as §1

[4] = biological target: Gal(b1-4)GlcNAc(b1-3)Gal(b1-4)GlcNAc(b1-3)Gal(b1-4)GlcNAc(b1-3)Gal(b1-4)GlcNAc(b1-3)Gal(b1-4)GlcNAc(b1-2)Man(a1-3)[Gal(b1-4)GlcNAc(b1-3)Gal(b1-4)GlcNAc(b1-3)Gal(b1-4)GlcNAc(b1-3)Gal(b1-4)GlcNAc(b1-3)Gal(b1-4)GlcNAc(b1-2)Man(a1-6)]Man(b1-4)GlcNAc(b1-4)GlcNAc
Outline: as §1

[5] = biological target: Gal(b1-4)GlcNAc(b1-3)Gal(b1-4)GlcNAc(b1-3)Gal(b1-4)GlcNAc(b1-3)Gal(b1-4)GlcNAc(b1-3)Gal(b1-4)GlcNAc(b1-2)Man(a1-3)[Gal(b1-4)GlcNAc(b1-3)Gal(b1-4)GlcNAc(b1-3)Gal(b1-4)GlcNAc(b1-3)Gal(b1-4)GlcNAc(b1-3)Gal(b1-4)GlcNAc(b1-2)Man(a1-6)]Man(b1-4)GlcNAc(b1-4)[Fuc(a1-6)]GlcNAc
Outline: as §1

[6] = biological target: Gal(b1-4)GlcNAc(b1-3)Gal(b1-4)GlcNAc(b1-3)Gal(b1-4)GlcNAc(b1-3)Gal(b1-4)GlcNAc(b1-3)Gal(b1-4)GlcNAc(b1-2)[Gal(b1-4)GlcNAc(b1-3)Gal(b1-4)GlcNAc(b1-3)Gal(b1-4)GlcNAc(b1-3)Gal(b1-4)GlcNAc(b1-3)Gal(b1-4)GlcNAc(b1-6)]Man(a1-6)[Gal(b1-4)GlcNAc(b1-3)Gal(b1-4)GlcNAc(b1-3)Gal(b1-4)GlcNAc(b1-3)Gal(b1-4)GlcNAc(b1-3)Gal(b1-4)GlcNAc(b1-2)Man(a1-3)]Man(b1-4)GlcNAc(b1-4)[Fuc(a1-6)]GlcNAc
Outline: as §1

[7] = biological target: Gal(b1-4)GlcNAc(b1-3)Gal(b1-4)GlcNAc(b1-3)Gal(b1-4)GlcNAc(b1-3)Gal(b1-4)GlcNAc(b1-3)Gal(b1-4)GlcNAc(b1-3)Gal(b1-4)GlcNAc(b1-2)Man(a1-3)[Gal(b1-4)GlcNAc(b1-3)Gal(b1-4)GlcNAc(b1-3)Gal(b1-4)GlcNAc(b1-3)Gal(b1-4)GlcNAc(b1-3)Gal(b1-4)GlcNAc(b1-3)Gal(b1-4)GlcNAc(b1-2)Man(a1-6)]Man(b1-4)GlcNAc(b1-4)GlcNAc
Outline: as §1

[8] = biological target: Gal(b1-4)GlcNAc(b1-3)Gal(b1-4)GlcNAc(b1-3)GalNAc
Outline: as §1

[9] = biological target: Gal(b1-4)GlcNAc(b1-3)Gal(b1-4)GlcNAc(b1-3)[Gal(b1-4)GlcNAc(b1-3)Gal(b1-4)GlcNAc(b1-6)]GalNAc
Outline: as §1

[10] = biological target: Gal(b1-4)GlcNAc(b1-3)Gal(b1-4)GlcNAc(b1-6)[Gal(b1-3)]GalNAc
Outline: as §1

[11] = biological target: Gal(b1-4)GlcNAc(b1-3)Gal(b1-4)[Fuc(a1-3)]GlcNAc(b1-3)Gal(b1-4)[Fuc(a1-3)]GlcNAc
Outline: as §1

[12] = biological target: Gal(b1-4)GlcNAc(b1-3)GalNAc
Outline: as §1

[13] = biological target: Gal(b1-4)GlcNAc(b1-3)[Fuc(a1-3)GlcNAc(b1-6)]Gal(b1-4)Glc
Outline: as §1

[14] = biological target: Gal(b1-4)GlcNAc(b1-3)[Gal(b1-4)GlcNAc(b1-6)]Gal(b1-4)GlcNAc
Outline: as §1

[15] = biological target: Gal(b1-4)GlcNAc(b1-3)[GlcNAc(b1-6)]Gal(b1-4)GlcNAc
Outline: as §1

[16] = biological target: Gal(b1-4)GlcNAc(b1-6)Gal(b1-4)GlcNAc
Outline: as §1

[17] = biological target: Gal(b1-4)GlcNAc(b1-6)GalNAc
Outline: as §1

[18] = biological target: Gal(b1-4)GlcNAc(b1-6)[Gal(b1-3)]GalNAc
Outline: as §1

[19] = biological target: Gal(b1-4)GlcNAc(b1-6)[Gal(b1-4)GlcNAc(b1-3)]GalNAc
Outline: as §1

[20] = biological target: Gal(b1-4)GlcNAc6P
Outline: as §1

[21] = biological target: Gal(b1-6)Gal
Outline: as §1

[22] = biological target: Gal3S(b1-3)GalNAc
Outline: as §1

[23] = biological target: Gal3S(b1-3)GlcNAc
Outline: as §1

[24] = biological target: Gal3S(b1-3)[Fuc(a1-4)]GlcNAc
Outline: as §1

[25] = biological target: Gal3S(b1-4)Glc
Outline: as §1

[26] = biological target: Gal3S(b1-4)Glc6S
Outline: as §1

[27] = biological target: Gal3S(b1-4)GlcNAc
Outline: as §1

[28] = biological target: Gal3S(b1-4)[Fuc(a1-3)]Glc6S
Outline: as §1

[29] = biological target: Gal3S(b1-4)[Fuc(a1-3)]GlcNAc
Outline: as §1

[30] = biological target: Gal3S(b1-4)[Fuc(a1-3)]GlcNAc6S
Outline: as §1

[31] = biological target: Gal3S4S(b1-4)GlcNAc
Outline: as §1

[32] = biological target: Gal3S6S(b1-4)GlcNAc
Outline: as §1

[33] = biological target: Gal3S6S(b1-4)GlcNAc6S
Outline: as §1

[34] = biological target: Gal4S(b1-4)GlcNAc
Outline: as §1

[35] = biological target: Gal4S6S(b1-4)GlcNAc
Outline: as §1

[36] = biological target: Gal6P(b1-4)GlcNAc
Outline: as §1

[37] = biological target: Gal6S(b1-3)GlcNAc
Outline: as §1

[38] = biological target: Gal6S(b1-3)GlcNAc6S
Outline: as §1

B1: a L Fucosidase (Thermotoga maritima) (protein)
chain: MASMKPRYKPDWESLREHTVPKWFDKAKFGIFIHWGIYSVPGWATPTGELGKVPMDAWFFQNPYAEWYENSLRIKESPTWEYHVKTYGENFEYEKFADLFTAEKWDPQEWADLFKKAGAKYVIPTTKHHDGFCLWGTKYTDFNSVKRGPKRDLVGDLAKAVREAGLRFGVYYSGGLDWRFTTEPIRYPEDLSYIRPNTYEYADYAYKQVMELVDLYLPDVLWNNMGWPEKGKEDLKYLFAYYYNKHPEGSVNDRWGVPHWDFKTAEYHVNYPGDLPGYKWEFTRGIGLSFGYNRNEGPEHMLSVEQLVYTLVDVVSKGGNLLLNVGPKGDGTIPDLQKERLLGLGEWLRKYGDAIYGTSVWERCCAKTEDGTEIRFTRKCNRIFVIFLGIPTGEKIVIEDLNLSAGTVRHFLTGERLSFKNVGKNLEITVPKKLLETDSITLVLEAVEE
**Q.** What does the source list for B1?
**A.** glycan array binding signal (z-score) [1]: 0.153; glycan array binding signal (z-score) [2]: 0.731; glycan array binding signal (z-score) [3]: 0.606; glycan array binding signal (z-score) [4]: 0.594; glycan array binding signal (z-score) [5]: 0.737; glycan array binding signal (z-score) [6]: 0.275; glycan array binding signal (z-score) [7]: 0.063; glycan array binding signal (z-score) [8]: 0.922; glycan array binding signal (z-score) [9]: 0.254; glycan array binding signal (z-score) [10]: 1.36; glycan array binding signal (z-score) [11]: -0.594; glycan array binding signal (z-score) [12]: -0.592; glycan array binding signal (z-score) [13]: 0.101; glycan array binding signal (z-score) [14]: -0.337; glycan array binding signal (z-score) [15]: 0.333; glycan array binding signal (z-score) [16]: -0.205; glycan array binding signal (z-score) [17]: 0.096; glycan array binding signal (z-score) [18]: -0.395; glycan array binding signal (z-score) [19]: 0.13; glycan array binding signal (z-score) [20]: 1.37; glycan array binding signal (z-score) [21]: -0.141; glycan array binding signal (z-score) [22]: 0.819; glycan array binding signal (z-score) [23]: -0.043; glycan array binding signal (z-score) [24]: 0.534; glycan array binding signal (z-score) [25]: -0.352; glycan array binding signal (z-score) [26]: -0.25; glycan array binding signal (z-score) [27]: 0.275; glycan array binding signal (z-score) [28]: 0.443; glycan array binding signal (z-score) [29]: 0.994; glycan array binding signal (z-score) [30]: -0.238; glycan array binding signal (z-score) [31]: -1.04; glycan array binding signal (z-score) [32]: 1.33; glycan array binding signal (z-score) [33]: 0.962; glycan array binding signal (z-score) [34]: -0.611; glycan array binding signal (z-score) [35]: -0.705; glycan array binding signal (z-score) [36]: -0.647; glycan array binding signal (z-score) [37]: 0.321; glycan array binding signal (z-score) [38]: -0.65
